Tested on: MCF‐7 human breast cancer cell line
Assay: cells
Settings: MCF7, 24 h
Description: Using GraphPad Prism software, the IC50 values were determined (Figure 8). After conducting the MTT assay, the absorbance data was entered into the software to generate dose–response curves. The nonlinear regression analysis function, specifically log(inhibitor) verus normalized response was employed to calculate the IC50 values for each compound. This method allowed for accurate determination of the concentration required to inhibit 50% of cell viability.
The MTT assay (3‐[4,5‐dimethylthiazol‐2‐yl]‐2,5‐diphenyltetrazolium bromide) was employed to evaluate the anticancer potential of the synthesized compounds against the MCF‐7 human breast cancer cell line. MCF‐7 cells were seeded into a 96‐well plate at a density of 1 × 10^4 cells per well and allowed to adhere for 24 h. Subsequently, the cells were treated with the test compounds at concentrations of 0.1, 1, 2, 5, and 10 µM, prepared in plain Dulbecco's Modified Eagle Medium (DMEM) media. After 24 h of incubation, MTT solution (100 µg per well; Sigma‐Aldrich) was added, and the plates were incubated for an additional 3–4 h to allow the formation of formazan crystals. The resulting formazan was dissolved in DMSO, and absorbance was measured at 570 nm using a microplate reader.

## CC/C(=C(\c1ccccc1)c1ccc(OCCN(C)C)cc1)c1ccccc1 [Tamoxifen, tamoxifen]
  IC50: 2680 nM
